Binding data for 4 molecules are collected here from paper PMC7042714.

Protein sequences, listed by entry. Tags and fused reporters are not part of them.
UniProt Q9BVL2: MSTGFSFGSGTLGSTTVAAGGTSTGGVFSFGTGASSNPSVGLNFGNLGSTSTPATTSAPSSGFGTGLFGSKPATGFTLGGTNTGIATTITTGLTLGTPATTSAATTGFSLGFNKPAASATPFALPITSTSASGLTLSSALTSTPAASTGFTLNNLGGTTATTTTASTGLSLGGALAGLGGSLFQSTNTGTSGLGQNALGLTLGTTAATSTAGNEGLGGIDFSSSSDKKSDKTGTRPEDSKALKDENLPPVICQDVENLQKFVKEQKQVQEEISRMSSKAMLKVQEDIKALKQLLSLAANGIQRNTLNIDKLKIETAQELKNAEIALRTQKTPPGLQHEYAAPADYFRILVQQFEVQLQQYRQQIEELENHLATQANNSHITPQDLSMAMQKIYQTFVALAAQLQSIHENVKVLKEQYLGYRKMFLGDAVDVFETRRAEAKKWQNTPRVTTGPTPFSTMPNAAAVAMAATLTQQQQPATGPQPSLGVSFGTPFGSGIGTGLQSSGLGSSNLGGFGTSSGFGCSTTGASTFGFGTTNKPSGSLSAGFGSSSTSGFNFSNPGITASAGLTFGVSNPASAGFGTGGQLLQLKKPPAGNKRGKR
UniProt P12270: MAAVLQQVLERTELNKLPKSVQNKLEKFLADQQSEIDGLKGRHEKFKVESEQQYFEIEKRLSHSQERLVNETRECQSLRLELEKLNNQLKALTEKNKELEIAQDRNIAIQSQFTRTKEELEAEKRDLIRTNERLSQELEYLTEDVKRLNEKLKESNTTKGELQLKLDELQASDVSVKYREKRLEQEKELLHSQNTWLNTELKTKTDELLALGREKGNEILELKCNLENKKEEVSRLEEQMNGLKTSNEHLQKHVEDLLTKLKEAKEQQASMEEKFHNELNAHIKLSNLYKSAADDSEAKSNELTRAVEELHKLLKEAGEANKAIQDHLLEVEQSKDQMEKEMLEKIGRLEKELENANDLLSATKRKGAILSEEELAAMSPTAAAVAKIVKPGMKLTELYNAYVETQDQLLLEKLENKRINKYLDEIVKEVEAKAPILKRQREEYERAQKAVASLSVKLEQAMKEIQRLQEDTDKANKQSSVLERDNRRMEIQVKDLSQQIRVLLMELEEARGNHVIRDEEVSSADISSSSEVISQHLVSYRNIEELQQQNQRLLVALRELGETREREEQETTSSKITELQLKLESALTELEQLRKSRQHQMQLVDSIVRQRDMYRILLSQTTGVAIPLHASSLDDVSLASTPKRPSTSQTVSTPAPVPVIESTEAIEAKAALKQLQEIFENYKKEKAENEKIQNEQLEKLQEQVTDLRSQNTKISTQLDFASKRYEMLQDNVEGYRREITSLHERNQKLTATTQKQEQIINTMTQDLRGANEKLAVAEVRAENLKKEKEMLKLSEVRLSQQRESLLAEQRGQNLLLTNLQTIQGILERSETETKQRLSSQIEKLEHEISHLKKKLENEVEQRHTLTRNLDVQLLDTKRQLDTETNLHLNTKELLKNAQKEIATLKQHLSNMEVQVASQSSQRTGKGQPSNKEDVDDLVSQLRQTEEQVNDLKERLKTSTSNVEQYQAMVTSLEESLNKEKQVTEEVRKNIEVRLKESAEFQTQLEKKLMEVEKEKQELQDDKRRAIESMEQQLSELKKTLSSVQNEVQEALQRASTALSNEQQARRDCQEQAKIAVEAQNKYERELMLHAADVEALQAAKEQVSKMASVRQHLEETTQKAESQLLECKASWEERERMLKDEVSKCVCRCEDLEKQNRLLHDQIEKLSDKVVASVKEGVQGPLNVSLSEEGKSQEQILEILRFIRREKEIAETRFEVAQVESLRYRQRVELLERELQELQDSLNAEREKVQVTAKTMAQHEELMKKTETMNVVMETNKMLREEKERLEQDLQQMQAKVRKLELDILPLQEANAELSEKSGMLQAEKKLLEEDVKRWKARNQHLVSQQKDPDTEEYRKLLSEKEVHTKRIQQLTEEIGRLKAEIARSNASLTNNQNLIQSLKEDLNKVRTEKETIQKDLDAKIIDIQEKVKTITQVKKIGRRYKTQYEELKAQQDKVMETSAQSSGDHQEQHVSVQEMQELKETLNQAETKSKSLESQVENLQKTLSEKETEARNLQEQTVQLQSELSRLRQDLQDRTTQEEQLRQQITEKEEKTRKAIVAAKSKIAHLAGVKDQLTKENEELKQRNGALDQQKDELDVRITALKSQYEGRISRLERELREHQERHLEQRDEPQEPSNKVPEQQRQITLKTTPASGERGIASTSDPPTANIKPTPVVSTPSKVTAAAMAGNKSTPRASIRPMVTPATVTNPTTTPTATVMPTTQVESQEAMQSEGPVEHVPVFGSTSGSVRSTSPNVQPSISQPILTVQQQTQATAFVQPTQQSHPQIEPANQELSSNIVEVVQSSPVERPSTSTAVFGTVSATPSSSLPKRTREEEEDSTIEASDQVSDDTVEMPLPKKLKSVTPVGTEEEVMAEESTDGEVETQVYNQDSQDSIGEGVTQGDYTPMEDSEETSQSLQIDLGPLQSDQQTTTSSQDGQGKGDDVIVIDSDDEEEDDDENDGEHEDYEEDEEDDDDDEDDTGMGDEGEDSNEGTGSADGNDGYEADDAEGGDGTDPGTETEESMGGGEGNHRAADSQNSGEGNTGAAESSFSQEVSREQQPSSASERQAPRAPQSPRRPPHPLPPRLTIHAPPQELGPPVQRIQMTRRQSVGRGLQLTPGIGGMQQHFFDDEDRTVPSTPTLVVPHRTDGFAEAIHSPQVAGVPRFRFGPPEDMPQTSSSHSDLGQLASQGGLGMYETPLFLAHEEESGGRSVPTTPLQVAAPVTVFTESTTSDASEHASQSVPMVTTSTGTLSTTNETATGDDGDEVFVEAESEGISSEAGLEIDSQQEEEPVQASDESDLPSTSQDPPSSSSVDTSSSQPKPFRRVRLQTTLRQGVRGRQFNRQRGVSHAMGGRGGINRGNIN
UniProt Q92621: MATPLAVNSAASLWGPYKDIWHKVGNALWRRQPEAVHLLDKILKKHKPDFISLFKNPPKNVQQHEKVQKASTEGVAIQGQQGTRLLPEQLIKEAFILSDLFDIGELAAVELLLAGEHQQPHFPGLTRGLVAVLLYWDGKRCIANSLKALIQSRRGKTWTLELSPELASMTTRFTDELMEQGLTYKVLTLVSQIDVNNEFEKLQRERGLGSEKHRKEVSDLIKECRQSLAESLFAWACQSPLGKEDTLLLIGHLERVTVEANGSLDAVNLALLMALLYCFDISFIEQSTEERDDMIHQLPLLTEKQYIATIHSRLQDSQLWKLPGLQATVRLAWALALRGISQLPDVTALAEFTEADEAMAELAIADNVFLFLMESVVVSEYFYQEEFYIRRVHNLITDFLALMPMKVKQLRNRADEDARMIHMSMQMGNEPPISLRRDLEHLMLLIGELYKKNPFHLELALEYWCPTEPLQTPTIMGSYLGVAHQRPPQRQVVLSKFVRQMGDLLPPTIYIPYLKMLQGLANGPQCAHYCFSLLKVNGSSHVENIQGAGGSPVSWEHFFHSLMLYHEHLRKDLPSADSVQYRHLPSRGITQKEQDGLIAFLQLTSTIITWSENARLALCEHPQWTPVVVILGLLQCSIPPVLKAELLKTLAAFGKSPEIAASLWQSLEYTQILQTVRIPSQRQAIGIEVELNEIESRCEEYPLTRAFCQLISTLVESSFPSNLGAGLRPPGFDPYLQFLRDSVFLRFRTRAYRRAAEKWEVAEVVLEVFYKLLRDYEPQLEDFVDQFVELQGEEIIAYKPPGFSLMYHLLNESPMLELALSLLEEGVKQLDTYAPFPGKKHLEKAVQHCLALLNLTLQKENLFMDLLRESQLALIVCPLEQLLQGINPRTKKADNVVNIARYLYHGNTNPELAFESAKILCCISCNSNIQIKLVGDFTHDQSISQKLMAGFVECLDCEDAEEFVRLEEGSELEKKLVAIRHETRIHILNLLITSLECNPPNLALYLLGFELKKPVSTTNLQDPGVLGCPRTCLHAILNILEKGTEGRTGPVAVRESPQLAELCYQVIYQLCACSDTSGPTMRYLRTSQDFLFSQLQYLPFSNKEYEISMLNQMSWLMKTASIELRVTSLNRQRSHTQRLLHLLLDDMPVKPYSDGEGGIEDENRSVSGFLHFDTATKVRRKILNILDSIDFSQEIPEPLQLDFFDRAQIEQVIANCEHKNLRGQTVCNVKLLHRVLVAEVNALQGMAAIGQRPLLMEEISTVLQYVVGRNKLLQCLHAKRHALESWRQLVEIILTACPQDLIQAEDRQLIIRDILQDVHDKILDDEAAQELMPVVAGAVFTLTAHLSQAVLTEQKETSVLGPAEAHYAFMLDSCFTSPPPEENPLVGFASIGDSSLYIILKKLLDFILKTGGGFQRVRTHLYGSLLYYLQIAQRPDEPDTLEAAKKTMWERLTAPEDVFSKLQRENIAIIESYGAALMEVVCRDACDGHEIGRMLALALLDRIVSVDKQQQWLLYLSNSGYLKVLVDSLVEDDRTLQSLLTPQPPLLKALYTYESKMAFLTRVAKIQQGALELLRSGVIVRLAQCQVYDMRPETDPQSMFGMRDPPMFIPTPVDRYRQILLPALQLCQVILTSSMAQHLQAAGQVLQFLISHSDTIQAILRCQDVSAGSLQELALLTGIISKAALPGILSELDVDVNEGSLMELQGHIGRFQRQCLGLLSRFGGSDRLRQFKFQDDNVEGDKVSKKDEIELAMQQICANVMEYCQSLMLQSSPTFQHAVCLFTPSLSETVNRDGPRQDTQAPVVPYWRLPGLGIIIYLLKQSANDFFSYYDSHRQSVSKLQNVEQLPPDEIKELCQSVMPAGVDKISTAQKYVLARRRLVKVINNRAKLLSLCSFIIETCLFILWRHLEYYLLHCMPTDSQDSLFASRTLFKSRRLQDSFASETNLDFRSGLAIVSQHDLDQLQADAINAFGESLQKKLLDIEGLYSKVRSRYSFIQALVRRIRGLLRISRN

B1: NUP93 (protein, UniProt Q8N1F7 1-819)
chain: MDTEGFGELLQQAEQLAAETEGISELPHVERNLQEIQQAGERLRSRTLTRTSQETADVKASVLLGSRGLDISHISQRLESLSAATTFEPLEPVKDTDIQGFLKNEKDNALLSAIEESRKRTFGMAEEYHRESMLVEWEQVKQRILHTLLASGEDALDFTQESEPSYISDVGPPGRSSLDNIEMAYARQIYIYNEKIVNGHLQPNLVDLCASVAELDDKSISDMWTMVKQMTDVLLTPATDALKNRSSVEVRMEFVRQALAYLEQSYKNYTLVTVFGNLHQAQLGGVPGTYQLVRSFLNIKLPAPLPGLQDGEVEGHPVWALIYYCMRCGDLLAASQVVNRAQHQLGEFKTWFQEYMNSKDRRLSPATENKLRLHYRRALRNNTDPYKRAVYCIIGRCDVTDNQSEVADKTEDYLWLKLNQVCFDDDGTSSPQDRLTLSQFQKQLLEDYGESHFTVNQQPFLYFQVLFLTAQFEAAVAFLFRMERLRCHAVHVALVLFELKLLLKSSGQSAQLLSHEPGDPPCLRRLNFVRLLMLYTRKFESTDPREALQYFYFLRDEKDSQGENMFLRCVSELVIESREFDMILGKLENDGSRKPGVIDKFTSDTKPIINKVASVAENKGLFEEAAKLYDLAKNADKVLELMNKLLSPVVPQISAPQSNKERLKNMALSIAERYRAQGISANKFVDSTFYLLLDLITFFDEYHSGHIDRAFDIIERLKLVPLNQESVEERVAAFRNFSDEIRHNLSEVLLATMNILFTQFKRLKGTSPSSSSRPQRVIEDRDSQLRSQARTLITFAGMIPYRTSGDTNARLVQMEVLMN
B2: NUP50 (protein, UniProt Q9UKX7 1-468)
chain: MAKRNAEKELTDRNWDQEDEAEEVGTFSMASEEVLKNRAIKKAKRRNVGFESDTGGAFKGFKGLVVPSGGGRFSGFGSGAGGKPLEGLSNGNNITSAPPFASAKAAADPKVAFGSLAANGPTTLVDKVSNPKTNGDSQQPSSSGLASSKACVGNAYHKQLAALNCSVRDWIVKHVNTNPLCDLTPIFKDYEKYLANIEQQHGNSGRNSESESNKVAAETQSPSLFGSTKLQQESTFLFHGNKTEDTPDKKMEVASEKKTDPSSLGATSASFNFGKKVDSSVLGSLSSVPLTGFSFSPGNSSLFGKDTTQSKPVSSPFPTKPLEGQAEGDSGECKGGDEEENDEPPKVVVTEVKEEDAFYSKKCKLFYKKDNEFKEKGIGTLHLKPTANQKTQLLVRADTNLGNILLNVLIPPNMPCTRTGKNNVLIVCVPNPPIDEKNATMPVTMLIRVKTSEDADELHKILLEKKDA

These are yes or no findings as the source states them, for the method shown. In cells and extracts the contact can be indirect. A yes stands for co-enrichment or nearness to the bait. Other partners may have been found. No binding means not detected with the bait.

For this assay, the target named is HA-Strep-tagged NUP58 (UniProt Q9BVL2). The assay can be described thus: affinity purification with mass spectrometry; HA-Strep-NUP58 captured on StrepTactin Sepharose from lysate of HeLa Flp-In T-REx cells synchronized in interphase or mitosis; biotin eluate analysed by LC-MS/MS (DDA), spectral counts, three biological replicates; HA-Strep-GFP as control bait.
For the molecule TPR (from UniProt P12270 1-2363), the binding result is on record as “no binding”. For NUP205 (from UniProt Q92621 1-2012), the binding entry is given as “binds”. The entry for B1 is “binds”; for B2 it is “no binding”.
